Test results taken from PubChem BioAssay (NCATS).
Inconclusive means that the source gave no clear call. Such entries were picked first, then a sample of the others. For part of these data: A potency beside an inconclusive call is a rough fit, not a confirmed value. The source made the active and inactive calls. Calls follow the shape of the dose curve; as a rule, active = well fitted curve in the direction sought with a large enough effect; inconclusive = small, poorly fitted or top-dose-only effect, or another doubt; inactive = no such curve, though single readings can be large; an effect the other way counts as inactive or inconclusive.

Assays:
[1] = Quantitative High-Throughput drug screen in 47 multiple myeloma cell lines against the NCATS MIPE library collection: KMS20_JCRB cell viability assay (AID 1918973); details: CellTiter-Glo ATP, 48 h; viability (% of DMSO): at 45.8 µM (top of the series); also: nearly all actives have a fitted effect of over 45% in size; also: potency is read from the fitted curve at half-maximal effect
Outline: (§1)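 CellTiter-Glo ATP luminescence gave viability after 48 h compound treatment at 37C of 500 multiple myeloma cells per well. Normalisation used DMSO-only wells as 100% and media-only wells as 0% viability; primary qHTS of approved and investigational drugs.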

[2] = Quantitative High-Throughput drug screen in 47 multiple myeloma cell lines against the NCATS MIPE library collection: KMS21BM_JCRB cell viability assay (AID 1918974); details: ATP luminescence, 48 h; viability: at 45.8 µM (top of the series) unless noted; also: potency is read from the fitted curve at half-maximal effect
Outline: as §1

[3] = Quantitative High-Throughput drug screen in 47 multiple myeloma cell lines against the NCATS MIPE library collection: KMS26_JCRB cell viability assay (AID 1918975); details: KMS26 myeloma cells viability, CellTiter-Glo ATP, 48 h; viability (% of DMSO): at 45.8 µM (top of the series); also: nearly all actives have a fitted effect of over 45% in size; also: potency is read from the fitted curve at half-maximal effect
Outline: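 Relative luminescence from CellTiter-Glo served as the viability signal, referenced to DMSO-treated (100%) and cell-free medium (0%) controls. Treatment lasted 48 hours at 37C with 500 cells per well.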

[4] = Quantitative High-Throughput drug screen in 47 multiple myeloma cell lines against the NCATS MIPE library collection: MMM1_PLB cell viability assay (AID 1918976); also: nearly all actives have a fitted effect of over 35% in size; also: potency is read from the fitted curve at half-maximal effect
Outline: (§2)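 qHTS format: cells plated (500/well), pin-dosed with MIPE 4.0 compounds, kept 48 h at 37 °C. Readout was CellTiter-Glo luminescence, median RLU.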

[5] = Quantitative High-Throughput drug screen in 47 multiple myeloma cell lines against the NCATS MIPE library collection: MOLP8_DSMZ cell viability assay (AID 1918977); details: MOLP8 myeloma viability, CellTiter-Glo ATP luminescence, 48 h; viability (% of control): at 45.8 µM (top of the series); also: nearly all actives have a fitted effect of over 45% in size; also: potency is read from the fitted curve at half-maximal effect
Outline: as §2

[6] = Quantitative High-Throughput drug screen in 47 multiple myeloma cell lines against the NCATS MIPE library collection: MM1R_ATCC cell viability assay (AID 1918981); also: nearly all actives have a fitted effect of over 35% in size; also: potency is read from the fitted curve at half-maximal effect
Outline: as §2

[7] = Quantitative High-Throughput drug screen in 47 multiple myeloma cell lines against the NCATS MIPE library collection: L363_DSMZ cell viability assay (AID 1918984); details: L363 myeloma viability, CellTiter-Glo ATP luminescence, 48 h; viability (% of control): at 45.8 µM (top of the series); also: nearly all actives have a fitted effect of over 40% in size; also: potency is read from the fitted curve at half-maximal effect
Outline: as §2

[8] = Quantitative High-Throughput drug screen in 47 multiple myeloma cell lines against the NCATS MIPE library collection: KMS34_JCRB cell viability assay (AID 1918985); details: KMS34 myeloma viability, CellTiter-Glo ATP luminescence, 48 h; viability, percent of control: at 45.8 µM (top of the series); also: nearly all actives have a fitted effect of over 40% in size; also: potency is read from the fitted curve at half-maximal effect
Outline: as §2

[9] = Quantitative High-Throughput drug screen in 47 multiple myeloma cell lines against the NCATS MIPE library collection: OCIMY7_PLB cell viability assay (AID 1918987); details: OCI-MY7 myeloma viability, CellTiter-Glo ATP, 48 h; viability (% of DMSO): at 45.8 µM (top of the series); also: nearly all actives have a fitted effect of over 65% in size; also: potency is read from the fitted curve at half-maximal effect
Outline: as §2

[10] = Quantitative High-Throughput drug screen in 47 multiple myeloma cell lines against the NCATS MIPE library collection: OCIMY5_PLB cell viability assay (AID 1918988); details: OCI-MY5 myeloma viability, ATP luminescence, 48 h; viability, % of control: at 45.8 µM (top of the series); also: potency is read from the fitted curve at half-maximal effect; nearly all actives have a fitted effect of over 65% in size
Outline: as §2

[11] = Quantitative High-Throughput drug screen in 47 multiple myeloma cell lines against the NCATS MIPE library collection: SKMM1_PLB cell viability assay (AID 1919863); details: SKMM1 myeloma viability, CellTiter-Glo ATP, 48 h; viability: stronger effect = lower value; also: nearly all actives have a fitted effect of over 35% in size; also: potency is read from the fitted curve at half-maximal effect
Outline: as §2

[12] = Quantitative High-Throughput drug screen in 47 multiple myeloma cell lines against the NCATS MIPE library collection: U266_ATCC cell viability assay (AID 1919864); details: U266 myeloma viability, CellTiter-Glo ATP luminescence, 48 h; viability (% of DMSO control): at 45.8 µM (top of the series); also: nearly all actives have a fitted effect of over 35% in size; also: potency is read from the fitted curve at half-maximal effect
Outline: as §2

[13] = Quantitative High-Throughput drug screen in 47 multiple myeloma cell lines against the NCATS MIPE library collection: MM1S_ATCC cell viability assay (AID 1918980); also: nearly all actives have a fitted effect of over 45% in size; also: potency is read from the fitted curve at half-maximal effect
Outline: as §2

[14] = Quantitative High-Throughput drug screen in 47 multiple myeloma cell lines against the NCATS MIPE library collection: LP1_DSMZ cell viability assay (AID 1918982); details: LP1 myeloma viability, CellTiter-Glo ATP luminescence, 48 h; viability (% of control): at 45.8 µM (top of the series); also: nearly all actives have a fitted effect of over 35% in size; also: potency is read from the fitted curve at half-maximal effect
Outline: as §2

[15] = Quantitative High-Throughput drug screen in 47 multiple myeloma cell lines against the NCATS MIPE library collection: KMS28PE_JCRB cell viability assay (AID 1918983); also: nearly all actives have a fitted effect of over 35% in size
Outline: as §2

[16] = Quantitative High-Throughput drug screen in 47 multiple myeloma cell lines against the NCATS MIPE library collection: OPM1_PLB cell viability assay (AID 1918989); also: nearly all actives have a fitted effect of over 40% in size; also: potency is read from the fitted curve at half-maximal effect
Outline: as §2

[17] = Quantitative High-Throughput drug screen in 47 multiple myeloma cell lines against the NCATS MIPE library collection: XG1_PLB cell viability assay (AID 1919866); details: CellTiter-Glo ATP, 48 h; viability: at 45.8 µM (top of the series); also: nearly all actives have a fitted effect of over 35% in size; also: potency is read from the fitted curve at half-maximal effect
Outline: as §2

[18] = Quantitative High-Throughput drug screen in 47 multiple myeloma cell lines against the NCATS MIPE library collection: NCIH929_DSMZ cell viability assay (AID 1918978)
Outline: as §2

[19] = Quantitative High-Throughput drug screen in 47 multiple myeloma cell lines against the NCATS MIPE library collection: XG6_PLB cell viability assay (AID 1919865); details: XG6 myeloma viability, CellTiter-Glo ATP luminescence, 48 h; viability (% of control): at 45.8 µM (top of the series); also: nearly all actives have a fitted effect of over 40% in size; also: potency is read from the fitted curve at half-maximal effect
Outline: as §2

Compound	Potency [1]	Potency [2]	Potency [3]	Potency [4]	Potency [5]	Potency [6]	Potency [7]	Potency [8]	Potency [9]	Potency [10]	Potency [11]	Potency [12]	Potency [13]	Potency [14]	Potency [15]	Potency [16]	Potency [17]	Potency [18]	viability [11]	Potency [19]
C[C@]12CC[C@@H]3c4ccc(O)cc4CC[C@H]3[C@H]1[C@@H](O)[C@@H](O)[C@H]2O	inconclusive: 0.0093 µM [cytotoxic, full curve, poor fit]	inconclusive: 33.2 µM [rising, partial curve, poor fit]	inactive	inconclusive: 0.0026 µM [rising, full curve, poor fit]	inconclusive: 0.0023 µM [rising, full curve, poor fit]	inconclusive: 0.0148 µM [rising, full curve, poor fit]	inactive	inactive	inconclusive: 18.7 µM [cytotoxic, partial curve, poor fit]	inconclusive: 0.0013 µM [rising, full curve, poor fit]	inconclusive: 0.0023 µM [rising, full curve, poor fit]	inconclusive: 5.9 µM [cytotoxic, partial curve, poor fit]	–	–	–	–	–	–	–	–
CCOc1cc(N)c(Cl)cc1C(=O)NCC1CN(Cc2ccc(F)cc2)CCO1 (centres undefined)	inconclusive: 0.0935 µM [rising, full curve, poor fit]	inconclusive: 3.72 µM [rising, full curve]	inconclusive: 8.33 µM [rising, partial curve, poor fit]	inconclusive: 0.0093 µM [rising, full curve]	inactive	–	inconclusive: 0.001 µM	inactive	inconclusive: 0.235 µM [rising, full curve, poor fit]	–	–	inactive	inconclusive: 23.5 µM [cytotoxic, single point]	inactive	inactive	inconclusive: 8.33 µM [rising, partial curve]	inactive	–	–	–
CN(C)C(=O)COC(=O)Cc1ccc(OC(=O)c2ccc(N=C(N)N)cc2)cc1	inconclusive: 11.8 µM [cytotoxic, single point]	inconclusive: 6.62 µM [cytotoxic, partial curve, poor fit]	inconclusive: 23.5 µM [cytotoxic, partial curve, poor fit]	inconclusive: 0.0019 µM [rising, full curve, poor fit]	–	inconclusive: 37.2 µM [cytotoxic, single point]	active: 5.26 µM	inconclusive: 0.0148 µM [cytotoxic, full curve, poor fit]	inconclusive: 4.18 µM [cytotoxic, full curve, poor fit]	inconclusive: 37.2 µM [cytotoxic, single point]	–	–	–	inactive	–	active: 0.418 µM	inconclusive: 0.743 µM [cytotoxic, full curve]	inconclusive: 13.2 µM [cytotoxic, partial curve, poor fit]	inactive: 150%	–
CCCCCOC(=O)Nc1nc(=O)n([C@@H]2O[C@H](C)[C@@H](O)C2O)cc1F (some centres undefined)	inactive	inconclusive: 26.4 µM [rising, partial curve]	inactive	inactive	–	inactive	inactive	inactive	inactive	inconclusive: 37.2 µM [cytotoxic, single point]	inconclusive: 20.9 µM [cytotoxic, partial curve, poor fit]	inactive	inconclusive: 3.32 µM [cytotoxic, full curve, poor fit]	inactive	inactive	–	–	inconclusive: 20.9 µM [cytotoxic, partial curve]	–	active: 3.32 µM
C[C@H](CCC(=O)O)[C@H]1CC[C@H]2[C@@H]3[C@H](O)C[C@@H]4C[C@H](O)CC[C@]4(C)[C@@H]3CC[C@]12C	inactive	inconclusive: 3.32 µM [cytotoxic, partial curve, poor fit]	inactive	inconclusive: 0.0235 µM [rising, full curve, poor fit]	inactive	inconclusive: 0.0017 µM [rising, full curve, poor fit]	inactive	–	inconclusive: 0.0033 µM [rising, full curve, poor fit]	inconclusive: 2.35 µM [rising, partial curve, poor fit]	–	inconclusive: 0.105 µM [rising, full curve, poor fit]	inactive	–	–	inactive	–	–	inactive: 131%	inactive
OCCn1cc(-c2ccc3c(c2)CCC3=NO)c(-c2ccncc2)n1	inconclusive: 33.2 µM [cytotoxic, single point]	active: 8.33 µM	inconclusive: 0.0166 µM [rising, full curve, poor fit]	inconclusive: 16.6 µM [cytotoxic, partial curve, poor fit]	active: 0.0662 µM	inconclusive: 0.0023 µM [rising, full curve, poor fit]	inconclusive: 5.9 µM [cytotoxic, full curve, poor fit]	inactive	inconclusive: 37.2 µM [cytotoxic, partial curve, poor fit]	inconclusive: 20.9 µM [cytotoxic, partial curve, poor fit]	inconclusive: 0.0074 µM [cytotoxic, full curve, poor fit]	active: 23.5 µM	–	inconclusive: 0.0023 µM [rising, full curve, poor fit]	–	–	inconclusive: 29.6 µM [cytotoxic, single point]	–	–	–
